Results from paper PMC7071683.
These are yes or no findings as the source states them, for the method shown. Some binding calls cover weakened binding; strength is not graded here.

Chains of the proteins cited; added tags and fusions are not shown. Lines headed by an entry give the natural chain unless they say otherwise; changes in a name come on top. Residues count along the entry.
UniProt O43915, residues 89-205: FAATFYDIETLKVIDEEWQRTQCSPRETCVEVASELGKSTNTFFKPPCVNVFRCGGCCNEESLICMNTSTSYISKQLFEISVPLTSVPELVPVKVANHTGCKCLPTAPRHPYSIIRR
UniProt P35916, residues 25-775: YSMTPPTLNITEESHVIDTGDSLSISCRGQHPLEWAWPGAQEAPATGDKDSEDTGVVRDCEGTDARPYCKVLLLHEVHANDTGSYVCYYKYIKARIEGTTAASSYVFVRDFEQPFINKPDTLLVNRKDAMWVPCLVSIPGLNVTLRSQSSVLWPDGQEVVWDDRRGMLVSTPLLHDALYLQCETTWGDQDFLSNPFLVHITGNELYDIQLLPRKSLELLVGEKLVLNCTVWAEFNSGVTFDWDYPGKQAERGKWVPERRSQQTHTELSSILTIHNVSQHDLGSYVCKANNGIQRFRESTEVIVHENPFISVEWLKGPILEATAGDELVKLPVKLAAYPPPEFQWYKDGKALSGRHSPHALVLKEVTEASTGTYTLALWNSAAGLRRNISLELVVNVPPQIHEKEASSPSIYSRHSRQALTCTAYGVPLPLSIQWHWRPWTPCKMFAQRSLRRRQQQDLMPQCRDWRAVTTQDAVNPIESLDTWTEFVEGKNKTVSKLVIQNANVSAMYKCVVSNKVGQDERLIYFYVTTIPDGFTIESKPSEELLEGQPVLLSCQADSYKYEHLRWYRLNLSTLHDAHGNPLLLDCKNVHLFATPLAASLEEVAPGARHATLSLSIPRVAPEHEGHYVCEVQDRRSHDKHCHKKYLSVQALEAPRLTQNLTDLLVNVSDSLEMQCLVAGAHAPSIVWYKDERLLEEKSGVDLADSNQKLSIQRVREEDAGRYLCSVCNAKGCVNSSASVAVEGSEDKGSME

Target: Commercially available human VEGF-D (human) (UniProt O43915)
Assay: ELISA; histidine-tagged ligand (2.5 μg/mL in PBS, overnight at 4 °C) captured on nickel coated high sensitivity multiwell plates; receptor-Fcγ added 2 h at 37 °C in 0.05% skim milk, 0.05% Tween 20 in PBS; detected with HRP-conjugated goat anti-human IgG antibody; both purified

- binding: binds
Substance: Recombinant human VEGF receptor 3/Fcγ chimera (from UniProt P35916 25-775) (Fc fusion)
